Measurements published in PMC12394690.

Target: T1, DCAF7 of the GST pull-down (UniProt P61962)
T1 sequence: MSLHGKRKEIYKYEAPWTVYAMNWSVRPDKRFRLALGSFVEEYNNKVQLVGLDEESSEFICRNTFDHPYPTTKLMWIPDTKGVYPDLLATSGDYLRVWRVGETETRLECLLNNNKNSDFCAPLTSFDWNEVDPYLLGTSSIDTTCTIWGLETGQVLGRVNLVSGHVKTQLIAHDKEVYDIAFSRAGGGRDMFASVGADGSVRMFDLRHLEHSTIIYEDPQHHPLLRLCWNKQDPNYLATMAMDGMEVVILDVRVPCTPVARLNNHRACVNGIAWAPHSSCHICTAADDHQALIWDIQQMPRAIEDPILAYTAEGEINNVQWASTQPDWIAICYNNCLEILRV
Assay: pull-down; GST pull-down in vitro; the paper calls the binding direct; which partner carried GST is not told

binding: binds
Substance: USP2b of the GST pull-down (from UniProt O75604-4) (enzyme)

These are yes or no findings as the source states them, for the method shown. In cells and extracts the contact can be indirect. Binding calls can cover weak binding; strength is not graded here. Sequences can lack the tags named with a protein.
